No constants are given. Whether binding was seen depends on the method and setting. Binding seen in cells or lysates may run through a third protein. Some entries that bind do so weakly or less than the wild type.
How the values were obtained:
[1] = biological target: T1, CD47 on mouse microglial cells / mouse peritoneal recruited macrophages (mouse) (UniProt Q61735); experiment: Duolink proximity ligation assay, confocal micrographs
T1 sequence (looked up): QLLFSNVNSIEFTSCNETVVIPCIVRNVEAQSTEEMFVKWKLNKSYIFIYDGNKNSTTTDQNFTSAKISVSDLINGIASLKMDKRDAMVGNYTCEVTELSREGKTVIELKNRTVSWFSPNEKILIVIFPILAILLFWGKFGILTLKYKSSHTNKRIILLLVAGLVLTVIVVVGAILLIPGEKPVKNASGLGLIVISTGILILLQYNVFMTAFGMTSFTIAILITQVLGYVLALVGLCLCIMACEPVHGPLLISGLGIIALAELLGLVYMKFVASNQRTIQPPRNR

Chains of the proteins cited; added tags and fusions are not shown. Residues count along the entry.
UniProt P05555, residues 17-1153: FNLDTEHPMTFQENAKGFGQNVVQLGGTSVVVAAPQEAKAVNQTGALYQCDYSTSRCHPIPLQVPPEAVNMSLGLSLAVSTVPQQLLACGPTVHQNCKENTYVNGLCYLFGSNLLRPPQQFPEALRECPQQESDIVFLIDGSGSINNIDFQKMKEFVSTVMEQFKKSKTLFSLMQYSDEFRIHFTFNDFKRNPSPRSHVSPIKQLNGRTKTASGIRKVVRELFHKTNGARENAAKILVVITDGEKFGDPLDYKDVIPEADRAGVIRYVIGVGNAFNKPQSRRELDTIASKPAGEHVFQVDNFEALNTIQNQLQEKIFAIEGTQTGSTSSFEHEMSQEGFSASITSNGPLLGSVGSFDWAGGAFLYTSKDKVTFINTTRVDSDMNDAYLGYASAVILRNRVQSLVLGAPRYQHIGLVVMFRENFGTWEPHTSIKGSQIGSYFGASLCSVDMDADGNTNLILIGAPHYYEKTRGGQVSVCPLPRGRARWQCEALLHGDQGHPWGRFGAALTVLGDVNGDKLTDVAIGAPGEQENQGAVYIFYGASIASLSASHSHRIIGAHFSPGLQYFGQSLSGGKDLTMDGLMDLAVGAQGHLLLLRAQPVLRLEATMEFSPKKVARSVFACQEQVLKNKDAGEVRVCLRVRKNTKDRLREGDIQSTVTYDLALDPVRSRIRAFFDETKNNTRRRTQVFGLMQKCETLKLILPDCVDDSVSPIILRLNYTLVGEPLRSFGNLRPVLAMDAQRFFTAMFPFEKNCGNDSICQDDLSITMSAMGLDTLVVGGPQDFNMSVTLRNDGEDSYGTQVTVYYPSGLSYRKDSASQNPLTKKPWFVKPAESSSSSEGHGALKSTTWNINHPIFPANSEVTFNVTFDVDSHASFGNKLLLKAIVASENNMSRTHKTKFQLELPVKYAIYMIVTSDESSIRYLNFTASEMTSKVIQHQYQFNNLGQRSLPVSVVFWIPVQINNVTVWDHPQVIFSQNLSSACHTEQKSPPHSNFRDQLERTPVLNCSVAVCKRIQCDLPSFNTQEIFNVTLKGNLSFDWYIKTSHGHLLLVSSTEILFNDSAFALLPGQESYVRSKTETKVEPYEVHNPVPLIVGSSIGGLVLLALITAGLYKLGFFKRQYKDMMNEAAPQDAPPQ

[2] = biological target: T1, CD47 on mouse microglial cells / mouse peritoneal recruited macrophages (mouse); experiment: Duolink proximity ligation assay on fixed mouse peritoneal macrophages; complexes not observed in CD47-/- mice
[3] = biological target: T1, CD47 on mouse microglial cells / mouse peritoneal recruited macrophages (mouse); experiment: Duolink proximity ligation assay on fixed mouse peritoneal macrophages

Measured: binding

CD11b on mouse peritoneal recruited macrophages (from UniProt P05555 17-1153) (receptor)
binds: all assays above
